We go through 108 sequences from PubChem BioAssay AID1347426 (Functional Genomics Laboratory (NCATS/FGL), 2020).

The campaign covered roughly 31,000 sequences. About 1,400 (4.5%) were called active.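 The calls were made as follows: active = median seed-adjusted z-score above 1 or below -1; inactive = the rest.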 Some of the results follow.

The nature of the test: Novel Modifiers of Survival Motor Neuron (SMN) Protein: Gene Identification via Genome-wide siRNA Screen.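 Also: luminescence tracks full-length SMN protein made from the SMN2 reporter.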 The conditions noted are these: HEK293T SMN2-luciferase reporter, siRNA knockdown, 72 h; actives lie on both sides. An outline of the steps: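 Steps: spot 1 pmol siRNA, add Lipofectamine RNAiMax in serum-free DMEM, seed HEK293T SMN2–luciferase reporter cells; incubate 72 h at 37 °C; add ONE-Glo; normalize luminescence to control siRNA, log10, MAD. Candidates: |MAD| > 1.0.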
With UAAUGACCCUAUCUAUAAATT against UGT2B17, the median seed-adjusted z-score is inactive: -0.0203.

Consider AAGCUGAUGUUAACAUCGATT against CDKN2C, for which the median seed-adjusted z-score was inactive: -0.0789.

For GCAUAUUAAGGAGACCUAUTT against HSD17B6, the median seed-adjusted z-score was inactive: 0.573.

Consider CAAAGAAUGUGGACAUGCUTT against CXCL16, for which the median seed-adjusted z-score is inactive: 0.201.

For CUAAGACUGUGGACGAGAATT against SBF1, the median seed-adjusted z-score was inactive: 0.192.

Take GCCCGUCUGCAGUACCUAATT against ADAP2: the median seed-adjusted z-score is active: -1.1.

For GCAGGAAGAUUGUGAUUCUTT against SEC14L4, the median seed-adjusted z-score is inactive: -0.714.

For the sequence GGUUGGACACUAUACAUAATT against SLC39A1, the median seed-adjusted z-score was inactive: 0.658.

Consider GAAUUGGCCGUUGGGCUUATT against COX8A, for which the median seed-adjusted z-score is inactive: -0.0749.

With GAGUUUCAUUUCACGACAATT against TTLL11, the median seed-adjusted z-score is inactive: 0.00825.

Regarding GGAGCACAAUACUUGGGAATT against CBX5, the median seed-adjusted z-score was inactive: 0.404.

With GAUACUGUCUGAUCAUCAATT against CASP8, the median seed-adjusted z-score is inactive: 0.413.

CGGGCUCCGUAGUCACAUUTT against NAALADL1: the median seed-adjusted z-score was inactive: -0.0444.

Turning to GGAUAGAGUUUACCGAAUUTT against ERCC6L, the median seed-adjusted z-score is inactive: -0.0229.

Turning to CCAACUACAUCUCACUCUATT against KDELR1, the median seed-adjusted z-score is inactive: -0.0168.

Regarding GCCUCAACAUCCUCAGAGATT against UBE2M, the median seed-adjusted z-score was inactive: 0.0974.

Take GCUGAGCUACGGUAUGUUUTT against LFNG: the median seed-adjusted z-score was inactive: -0.13.

Regarding CCGUGUCUUCAGGAACGAATT against CYB561, the median seed-adjusted z-score is inactive: 0.

As to GAUCCGAGAUCAACACCUUTT against PIK3R3, the median seed-adjusted z-score is active: -1.88.

For GACCUGAAAGAAGACUAUATT against PAFAH2, the median seed-adjusted z-score was inactive: 0.0216.

Regarding GGUCCAUUCCAACUGCUCATT against MYOCD, the median seed-adjusted z-score was inactive: -0.121.

On to GCUUUUCGUUAGCAUGCAATT against ABCA8, for which the median seed-adjusted z-score is inactive: -0.666.

Consider GGAUGCUUCUGAAUAGAAATT against BIRC7, for which the median seed-adjusted z-score is active: -1.44.

Take GAAAGACUUGUUUAUAUUATT against ADRB1: the median seed-adjusted z-score was active: 1.06.

AUAGCCUUGUUGAAACUAUTT against PCDHA8: the median seed-adjusted z-score was inactive: 0.

With GAACUUACCUGCCUCUUCATT against SLC22A18, the median seed-adjusted z-score was inactive: -0.654.

In the case of ACGCUUUCCUCGACGAGAATT against OPRD1, the median seed-adjusted z-score is inactive: 0.314.

ACUACUUCAUCCUAACUGATT against FOXRED2: the median seed-adjusted z-score was inactive: 0.0294.

Take GGACCAUUUAGAGAAGGUUTT against WARS2: the median seed-adjusted z-score is inactive: 0.21.

For CGAUAGAACUAGAUGGAAATT against RAB8B, the median seed-adjusted z-score was inactive: -0.259.

Regarding GCGAAUAUGUGGAUCGAGATT against DOCK1, the median seed-adjusted z-score was inactive: -0.235.

With AGGGCUGCAUGAAAAUUCATT against AICDA, the median seed-adjusted z-score was inactive: 0.289.

On to GGAGAAUAGUAAGCGUAAATT against TRIP10, for which the median seed-adjusted z-score was inactive: -0.261.

On to GGAGAACAACGUAGAUGCATT against PC, for which the median seed-adjusted z-score is inactive: 0.2.

In the case of GGAGGAAUAUGAGCCGGAATT against MAP1B, the median seed-adjusted z-score is inactive: 0.139.

In the case of GCCUGAGCUUUGAUCGAGATT against PCDH1, the median seed-adjusted z-score was inactive: -0.514.

Consider AGAUCUUGGUUCCUCUAAUTT against L3MBTL, for which the median seed-adjusted z-score was inactive: 0.0232.

On to CAGUCUAAAUCUCAAGCUATT against TCF20, for which the median seed-adjusted z-score is inactive: 0.392.

As for AGCUUGUGCCCAUACCAAUTT against ITGB7, the median seed-adjusted z-score was inactive: 0.443.

Take GGUGUUAAGAUGUUGAGUATT against RFWD3: the median seed-adjusted z-score was inactive: 0.554.

GUGUAGGGAUAGUUACCAATT against ZNF518A: the median seed-adjusted z-score is inactive: -0.252.

Regarding AGAUGAAGUCUAUAUCAAATT against C1QL3, the median seed-adjusted z-score was inactive: -0.276.

With UGGAGUAUCCUAUCAUGUATT against MGST3, the median seed-adjusted z-score is inactive: -0.0509.

As to CUGGGAGCAUUAUCAGGAATT against TARS2, the median seed-adjusted z-score was inactive: -0.0143.

As to GUGCAUCUCUUGACAAUUUTT against LIPI, the median seed-adjusted z-score was inactive: 0.65.

Regarding GACAAUGGGUUAUUCAGGATT against FNTA, the median seed-adjusted z-score is active: 1.04.

In the case of CCACGGUCUGGUUGAUUUATT against KDELR1, the median seed-adjusted z-score is inactive: -0.0168.

GCCGUUGAAUUAGCGAAGATT against IPO8: the median seed-adjusted z-score was inactive: -0.349.

For the sequence CACUUGCUAUUAUUAGCAUTT against NMBR, the median seed-adjusted z-score is inactive: 0.32.

On to GGUCGAAAAGCAAACUCAATT against PTPRN2, for which the median seed-adjusted z-score is inactive: -0.104.

For the sequence CCCAGGCUAGUCACAGUUATT against SCO2, the median seed-adjusted z-score was inactive: 0.848.

As to GGACAGGGCUUAUUUAAUUTT against ORC6L, the median seed-adjusted z-score is inactive: 0.

For GCGAGAAGGUUGAUCCAAATT against RP2, the median seed-adjusted z-score is inactive: -0.655.

As to GGGUUUUAGUAACCUUAGATT against SUCNR1, the median seed-adjusted z-score was inactive: 0.

Consider GCUCAGGAGCUAUGCCUCATT against TH, for which the median seed-adjusted z-score is inactive: -0.878.

Consider GUGUAUCUCCUGCAAGAUATT against CD96, for which the median seed-adjusted z-score was inactive: 0.461.

In the case of CCAGAAAGCUUCAUCCACATT against MC1R, the median seed-adjusted z-score was inactive: -0.64.

For CCUCCUGUAUAAAAAGGAATT against CLDN20, the median seed-adjusted z-score was inactive: -0.00173.

As to CGGAUACUGAGGUACAGAATT against TPMT, the median seed-adjusted z-score was inactive: 0.19.

GCACAUGACAUACAUACGATT against PTER: the median seed-adjusted z-score was inactive: 0.75.

Consider CGGAUAAGCUGAAAACACUTT against AHSA1, for which the median seed-adjusted z-score is inactive: 0.489.

As to GCACUUAAAAGGGCGAAGATT against ZFR, the median seed-adjusted z-score was inactive: -0.048.

On to CAACUACGGUGGAGUGAUATT against PRIM1, for which the median seed-adjusted z-score is inactive: -0.23.

As to GGCUUUUAGGGUACGAGGATT against ZFP82, the median seed-adjusted z-score was inactive: 0.57.

As for CAACCUUUCACUGCAAUGATT against NAT8, the median seed-adjusted z-score is inactive: -0.228.

As to ACGCUUCAGUGGUACCUCUTT against SIGLEC1, the median seed-adjusted z-score is inactive: -0.153.

Take GGUUGACCAAGAUACAGCATT against LONRF1: the median seed-adjusted z-score is inactive: 0.743.

With GCUGUUACCUCGACGAGUATT against TSC2, the median seed-adjusted z-score is active: 1.11.

With GCUCCAGUCUCACUAAACATT against ZNF552, the median seed-adjusted z-score is inactive: 0.437.

GACCAGAUAUUUGCCUAUUTT against CYFIP1: the median seed-adjusted z-score was inactive: -0.377.

Consider GAGAUUCUCUCAGCCUAAATT against ADAR, for which the median seed-adjusted z-score is inactive: 0.267.

As for GAAUUAGAGUUGAGGGUAATT against MYBPC1, the median seed-adjusted z-score is inactive: 0.295.

As for GCUUAGCAAUGGAUAUGCATT against DERL1, the median seed-adjusted z-score was inactive: 0.22.

Take GUCAGUUAGUGACAGCUAATT against ST8SIA1: the median seed-adjusted z-score was inactive: -0.25.

GGAGGACAUCGACCAGAUATT against APBA1: the median seed-adjusted z-score was inactive: 0.305.

On to CAUUAUUUCGCGAAUCCAATT against ADAM15, for which the median seed-adjusted z-score was inactive: -0.682.

On to GAGCGCCUCUAGAAUGUAATT against HMX1, for which the median seed-adjusted z-score is active: 1.3.

Regarding CAUACACUUGUAUCGCAAATT against FSTL5, the median seed-adjusted z-score was inactive: -0.881.

On to CCACGAAGAUCUCAUCAUATT against RNF12, for which the median seed-adjusted z-score is inactive: 0.29.

For GAAUUAGACCACAACAUCATT against SMC2, the median seed-adjusted z-score was inactive: -0.052.

As for GGAGGAUCAUUGGAUCUCATT against CFD, the median seed-adjusted z-score was inactive: -0.0604.

As to CAAUGUUACCAAAACCGAATT against ACVR1C, the median seed-adjusted z-score was inactive: -0.0005.

As for GGCAGGAUCCUGUUACAUATT against RFC1, the median seed-adjusted z-score was inactive: 0.

With GGCUCAUUCUACUCGAAGATT against ADAMTS12, the median seed-adjusted z-score is inactive: -0.0721.

In the case of GGAUAUCUGGUACUAAAAATT against S100A14, the median seed-adjusted z-score is inactive: 0.0172.

Consider CCACCUUGUGAAAUCCUAUTT against ESD, for which the median seed-adjusted z-score was inactive: -0.196.

Regarding CGGCUACAAUACUAAUCGATT against REST, the median seed-adjusted z-score was inactive: 0.416.

Regarding GGAUCAAGUGUGAUCAGUATT against PTPRS, the median seed-adjusted z-score is inactive: -0.433.

With ACCUGAUCGUGGAGAGUGATT against TMCO6, the median seed-adjusted z-score is inactive: -0.227.

For GGCAAUUAAUGAAGUCUUUTT against SWAP70, the median seed-adjusted z-score is inactive: -0.704.

In the case of GGAGACUUCUUACCCACCATT against PSMD4, the median seed-adjusted z-score was active: 1.46.

In the case of GGAAGUAAUGAAAACUCAATT against PNLIPRP2, the median seed-adjusted z-score was inactive: -0.022.

Regarding GCAAAAUGGAACUCCCAUATT against BTNL8, the median seed-adjusted z-score was inactive: 0.0508.

As for CAAUCCAUACUGGUAUAAATT against ZNF540, the median seed-adjusted z-score was inactive: -0.439.

In the case of CAAAGUUGGUUUAUAGUAUTT against CDH8, the median seed-adjusted z-score was inactive: 0.169.

For the sequence CAUCGUGGAUCUGAUUAAATT against GSTT1, the median seed-adjusted z-score is inactive: 0.0781.

With GCAUCCUAGUGAGAAAGGATT against GZMH, the median seed-adjusted z-score was inactive: 0.946.

GGCUUGCGGUGUGGACUAUTT against ARRB1: the median seed-adjusted z-score was inactive: -0.205.

Take AGUGGAAACUGCUCACAGATT against SOX21: the median seed-adjusted z-score was inactive: -0.412.

For GCUGCGAGAUGAGAACGGATT against NFE2L1, the median seed-adjusted z-score was inactive: 0.689.

In the case of CGACAGAAAUCCUGAAUGATT against PBX1, the median seed-adjusted z-score is inactive: -0.199.

On to GAACGACAGAUUAGAAUAATT against GDAP2, for which the median seed-adjusted z-score was inactive: 0.199.

As to GUGCUGCAAUUGAGGGCUATT against HSD11B2, the median seed-adjusted z-score was inactive: 0.215.

As to GGAGAGUAGUCUAGACCAATT against KRT5, the median seed-adjusted z-score is inactive: -0.325.

On to UCACCCAGAUAAUCAUUAATT against SFTPA2B, for which the median seed-adjusted z-score is inactive: -0.016.

GGUCGUGAGCGAUAAGACATT against ABCF2: the median seed-adjusted z-score was inactive: 0.0696.

As to GGUUUAACAUCUUCACGCUTT against KIR2DL4, the median seed-adjusted z-score is inactive: -0.271.

In the case of GAAUGUUCUUCUCUGCUAATT against RGS1, the median seed-adjusted z-score is inactive: 0.329.
